PubChem BioAssay AID504784 – Drosophila RNAi Screening Center, 2011

Assay: 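Genome-wide knock-down for genes giving too much or too little stored lipid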 (primary screen)
System: Drosophila Kc167 embryonic cells
Reagents: long dsRNA against Drosophila genes, about 250 ng dsRNA per well
Duration: 4 days
Challenge: cells fed 400 µM oleic acid bound to BSA
Measured: 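Microscope images give a droplet-to-nucleus area ratio, taken as log and converted to a screen-wide B-score; higher values mean greater lipid storage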
Scale: droplet/nuclear area B-score: higher = more stored lipid (overstorage)
The screen tested about 17,000 reagents; this is an unselected part of those that have a named target and a result. 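Each column is one replicate's B-score; the combined score over replicates was not deposited, so single values may mislead.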 Reagents against one gene are numbered here. Reagent sequences are not shown.

no.	Gene	dsRNA no.	droplet/nuclear area B-score, replicate 1	droplet/nuclear area B-score, replicate 2	droplet/nuclear area B-score, replicate 3
1	CG7251	1	2.75	-1.77	
2	pigeon	1	-2.04	0.378	
3	Gr47b	1	-0.548	-0.912	
4	CG11865	1	-0.298	0.0122	
5	NC2beta	1	0.938	0.783	
6	Polr1E	1	-0.00245	1.54	
7	Polr1E	2	0.887	-1.14	
8	gus	1	-0.311	-0.0229	
9	gus	2	0.301	-0.0172	-0.554
10	CG5116	1	2.73	0.0236	
11	CG7094	1	0.21	0.999	
12	CG9799	1	-0.0662	-0.0298	
13	Zdhhc8	1	-0.617	-1.33	-0.389
14	Zdhhc8	2	0.147	-1.48	0.45
15	eEF5	1	-1.99	-2.15	
16	sit	1	0.524	-4.76	
17	CkIalpha	1	2.05	2.84	-0.013
18	CkIalpha	2	2.23		
19	CkIalpha	3	0.979	1.97	

Reprinted from the entries so far for reference:
no.	Gene	dsRNA no.	droplet/nuclear area B-score, replicate 1	droplet/nuclear area B-score, replicate 2	droplet/nuclear area B-score, replicate 3
16	sit	1	0.524	-4.76	
17	CkIalpha	1	2.05	2.84	-0.013
18	CkIalpha	2	2.23		

More results:
no.	Gene	dsRNA no.	droplet/nuclear area B-score, replicate 1	droplet/nuclear area B-score, replicate 2	droplet/nuclear area B-score, replicate 3
20	CG9154	1	-0.185	0.0504	
21	SA1	1	-0.554	-2.67	
22	Atu	1	1.43	0.112	
23	Ccdc85	1	2.74	1.43	
24	Ccdc85	2	-0.817	1.68	
25	CG13023	1	0.12	-1.51	
26	rl	1	-0.11	0.239	
27	rl	2	0.118	-1.71	
28	rl	3	0.695	-0.727	
29	C15	1	0.763	1.46	
30	C15	2	0.875	-1.51	
31	CG4477	1	-0.556	-0.13	
32	Nup43	1	-1.57	-5.05	
33	MED15	1	2.68	-0.553	
34	CG13794	1	0.0707	1.62	
35	CG5823	1	-0.273	-0.404	
36	hrg	1	0.565	-1.78	
37	CG6729	1	0.0355	0.465	0.802
38	CG6729	2	-1.24	-0.811	
39	hog	1	0.159	1.23	
40	CG4563	1	-0.349	1.86	
41	CG12795	1	0.14	-1.67	
42	CG9498	1	0.561	0.778	
43	Ets98B	1	0.0766	-0.0874	-0.592
44	ND-B14.5B	1	0.945	-0.2	
45	CG34426	1	-0.959	-0.157	
46	CG15861	1	1.25	1.93	
47	GluRIIE	1	-1.93	1.41	
48	jeb	1	-0.706	-1.96	
49	jeb	2	0.0183	0.694	
50	SkpE	1	-1.77	-2.67	
51	mRpL32	1	-0.0655	-0.0688	
52	CG1486	1	-0.00184	0.172	
53	CG18304	1	-1.13	0.152	
54	SerRS-m	1	-0.689	-1.16	
55	CG12990	1	-2.8	-0.743	
56	CG9132	1	-0.966	-1.83	
